Laboratory results: PubChem BioAssay AID1224827 (NIAID, 2016)

- Purpose: 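Retest primary hits on a TNF reporter with six siRNAs per gene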 (follow-up of hits)
- Cells: RAW264.7 G9 mouse macrophage reporter clone
- Knock-down reagent: single siRNA against mouse genes, 100 nM siRNA
- Duration: siRNA for 2 days, then LPS about 16 h
- Challenge: bacterial lipopolysaccharide (LPS), 10 ng/ml, cells fixed after overnight (about 16 h) stimulation
- Detection: 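TNF promoter reporter red fluorescence in nuclei, background subtracted, normalised per plate and to non-targeting control siRNA, as z-scores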
- Direction: TNF reporter z-score, mean and TNF reporter z-score: higher = stronger Tnf promoter reporter signal; gene median z, three same-vendor siRNAs: higher = stronger Tnf reporter signal for the gene
- Active means: 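An siRNA is called active when its mean z-score over replicates is at least +2 or at most -2; control wells get no call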
Here is one part, drawn at random, of about 3,800 reagents tested. About 2,200 of all reagents (57%) were called active. 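Active means a strong reporter change in either direction; calls are per siRNA, not per gene; qiagen siRNAs gave weaker effects.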 Unmarked entries are inactive. The numbers tell different reagents against one gene apart. Reagent sequences are not shown.

Gene,reagent,"TNF reporter z-score, mean","gene median z, three same-vendor siRNAs","TNF reporter z-score, repeat 1","TNF reporter z-score, repeat 2"
Or5d43,1,2.12 (active),0.34,2.76,1.47
Or5d43,2,0.083,0.34,-0.42,0.586
Or5d43,3,-2.15 (active),0.34,0.0947,-4.4
Or5d43,4,4.66 (active),2.49,7.66,1.65
Or5d43,5,1.62,2.49,3.33,-0.0832
Or5d43,6,1.42,2.49,3.35,-0.522
Med14,1,1.3,-1.9,1.23,1.37
Med14,2,-1.9,-1.9,-1.9,-1.9
Med14,3,-3.63 (active),-1.9,-3.79,-3.46
Med14,4,-0.105,-1.5,1.4,-1.61
Med14,5,-1.59,-1.5,-1.38,-1.8
Med14,6,-1.35,-1.5,-0.216,-2.49
1700001G17Rik,1,0.423,-1.65,-0.0892,0.935
1700001G17Rik,2,-1.65,-1.65,-1.37,-1.93
1700001G17Rik,3,-2.66 (active),-1.65,-3.27,-2.06
1700001G17Rik,4,4.97 (active),0.0848,8.73,1.2
1700001G17Rik,5,0.0848,0.0848,1.09,-0.923
1700001G17Rik,6,-1.86,0.0848,-1.38,-2.34
Cdh1,1,-3.82 (active),-4.18,-2.26,-5.37
Cdh1,2,-3.94 (active),-4.18,-4.11,-3.76
Cdh1,3,-5.05 (active),-4.18,-4.25,-5.85
Cdh1,4,-1.01,-1.38,-0.939,-1.08
Cdh1,5,-0.429,-1.38,0.814,-1.67
Cdh1,6,-2.71 (active),-1.38,-2.68,-2.74
Pop7,1,0.546,-2.2,0.839,0.252
Pop7,2,-2.2 (active),-2.2,-2.54,-1.86
Pop7,3,-3.43 (active),-2.2,-3.87,-2.99
Pop7,4,2.87 (active),-0.757,4.9,0.836
Pop7,5,-0.947,-0.757,-1.68,-0.211
Pop7,6,-1.32,-0.757,-1.3,-1.34
Slc51a,1,0.741,-2.6,-0.657,2.14
Slc51a,2,-2.6 (active),-2.6,-2.66,-2.55
Slc51a,3,-2.82 (active),-2.6,-2.96,-2.68
Slc51a,4,3.81 (active),0.573,6.97,0.641
Slc51a,5,3.48 (active),0.573,7.38,-0.424
Slc51a,6,-0.00828,0.573,0.505,-0.521
Slc5a6,1,2,-2.9,0.995,3
Slc5a6,2,-3.73 (active),-2.9,-2.95,-4.51
Slc5a6,3,-3.62 (active),-2.9,-4.39,-2.85
Slc5a6,4,1.42,0.227,2.47,0.366
Slc5a6,5,0.351,0.227,0.614,0.088
Slc5a6,6,-1.85,0.227,-1.81,-1.88

Copied from the listing for reference:
Gene,reagent,"TNF reporter z-score, mean","gene median z, three same-vendor siRNAs","TNF reporter z-score, repeat 1","TNF reporter z-score, repeat 2"
Med14,3,-3.63 (active),-1.9,-3.79,-3.46
Med14,4,-0.105,-1.5,1.4,-1.61
Med14,5,-1.59,-1.5,-1.38,-1.8
Med14,6,-1.35,-1.5,-0.216,-2.49

More reagents follow.
Gene,reagent,"TNF reporter z-score, mean","gene median z, three same-vendor siRNAs","TNF reporter z-score, repeat 1","TNF reporter z-score, repeat 2"
Mrpl33,1,1.23,-4.63,-0.127,2.59
Mrpl33,2,-4.63 (active),-4.63,-4.57,-4.68
Mrpl33,3,-5.43 (active),-4.63,-5.57,-5.28
Mrpl33,4,1.34,-0.685,2.83,-0.148
Mrpl33,5,-0.685,-0.685,-0.623,-0.747
Mrpl33,6,-1.97,-0.685,-2.34,-1.59
Psors1c2,1,-0.519,-1.71,-0.993,-0.0461
Psors1c2,2,-1.55,-1.71,-2.43,-0.671
Psors1c2,3,-3.84 (active),-1.71,-4.5,-3.18
Psors1c2,4,1.4,-1.17,3.51,-0.705
Psors1c2,5,-0.988,-1.17,-1.65,-0.325
Psors1c2,6,-1.85,-1.17,-1.63,-2.08
Card6,1,1.83,-1.5,3.36,0.289
Card6,2,-2.03 (active),-1.5,-2.71,-1.34
Card6,3,-2.18 (active),-1.5,-1.66,-2.71
Cdh6,1,-3.22 (active),-3.69,-3.6,-2.85
Cdh6,2,-3.56 (active),-3.69,-3.35,-3.78
Cdh6,3,-5.55 (active),-3.69,-4.93,-6.17
Palm,1,0.914,-1.9,-0.772,2.6
Palm,2,-1.41,-1.9,-3.03,0.209
Palm,3,-5.24 (active),-1.9,-6.04,-4.43
Palm,4,2.87 (active),0.418,4.95,0.8
Palm,5,0.926,0.418,3.53,-1.68
Palm,6,-0.251,0.418,0.0354,-0.537
Prdx2,1,0.746,-0.336,-0.218,1.71
Prdx2,2,-0.547,-0.336,-0.219,-0.874
Prdx2,3,-1.87,-0.336,-0.452,-3.29
Prdx2,4,-0.0966,-1.18,0.767,-0.96
Prdx2,5,-1.52,-1.18,-1.39,-1.64
Prdx2,6,-2.05 (active),-1.18,-0.699,-3.41
Actl7a,1,-3.28 (active),-4.26,-4.05,-2.52
Actl7a,2,-4.6 (active),-4.26,-5.1,-4.1
Actl7a,3,-4.95 (active),-4.26,-4.43,-5.46
Actl7a,4,2.68 (active),1.33,4.71,0.653
Actl7a,5,0.652,1.33,2,-0.699
Actl7a,6,1.48,1.33,4.82,-1.86
